According to PMC6033357:
No constants are given. Whether binding was seen depends on the method and setting. In cells and extracts the contact can be indirect. Tags and fused reporters may be left off the sequences shown.

Molecular target: T1, Nucleus accumbens-associated protein 1 (NAC1), endogenous (human (endogenous in HeLa, ovarian cancer cell lines and HEK293T)) (UniProt Q96RE7)
T1 sequence: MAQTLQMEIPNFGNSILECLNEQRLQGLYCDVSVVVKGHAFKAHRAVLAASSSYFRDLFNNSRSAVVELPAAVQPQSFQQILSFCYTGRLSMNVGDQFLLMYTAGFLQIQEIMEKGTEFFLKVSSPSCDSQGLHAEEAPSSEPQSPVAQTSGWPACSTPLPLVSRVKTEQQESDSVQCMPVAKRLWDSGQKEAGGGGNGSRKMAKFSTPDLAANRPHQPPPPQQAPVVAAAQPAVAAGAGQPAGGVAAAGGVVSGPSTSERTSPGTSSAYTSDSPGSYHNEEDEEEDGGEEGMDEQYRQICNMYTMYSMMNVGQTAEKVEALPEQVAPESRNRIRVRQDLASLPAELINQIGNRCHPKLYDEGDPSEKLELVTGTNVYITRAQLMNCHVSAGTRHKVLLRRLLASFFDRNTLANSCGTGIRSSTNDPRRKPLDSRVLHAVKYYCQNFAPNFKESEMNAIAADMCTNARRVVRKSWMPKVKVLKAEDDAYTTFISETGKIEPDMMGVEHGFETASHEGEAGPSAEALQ
Assay: co-IP; FLAG-tagged wild-type or truncated CARM1 expressed in HEK293T cells, immunoprecipitated with anti-NAC1 antibody (endogenous NAC1), Western blotting

B1: FLAG-tagged CARM1-D2 (residues 2-483, ΔC-terminal) (domain or fragment, UniProt Q86X55 2-483)
chain: AAAAAAVGPGAGGAGSAVPGGAGPCATVSVFPGARLLTIGDANGEIQRHAEQQALRLEVRAGPDSAGIALYSHEDVCVFKCSVSRETECSRVGKQSFIITLGCNSVLIQFATPNDFCSFYNILKTCRGHTLERSVFSERTEESSAVQYFQFYGYLSQQQNMMQDYVRTGTYQRAILQNHTDFKDKIVLDVGCGSGILSFFAAQAGARKIYAVEASTMAQHAEVLVKSNNLTDRIVVIPGKVEEVSLPEQVDIIISEPMGYMLFNERMLESYLHAKKYLKPSGNMFPTIGDVHLAPFTDEQLYMEQFTKANFWYQPSFHGVDLSALRGAAVDEYFRQPVVDTFDIRILMAKSVKYTVNFLEAKEGDLHRIEIPFKFHMLHSGLVHGLAFWFDVAFIGSIMTVWLSTAPTEPLTHWYQVRCLFQSPLFAKAGDTLSGTCLLIANKRQSYDISIVAQVDQTGSKSSNLLDLKNPFFRYTGTTPSP
  binding: no binding
